We go through 2 compounds from ChEMBL document CHEMBL5674883, “The Heterochromatin Landscape in Migrating Cells and the Importance of H3K27me3 for Associated Transcriptome Alterations” (Cells, 2018).

The chains behind the UniProt entries cited, without tags or fusion partners.
UniProt Q61188, whole entry: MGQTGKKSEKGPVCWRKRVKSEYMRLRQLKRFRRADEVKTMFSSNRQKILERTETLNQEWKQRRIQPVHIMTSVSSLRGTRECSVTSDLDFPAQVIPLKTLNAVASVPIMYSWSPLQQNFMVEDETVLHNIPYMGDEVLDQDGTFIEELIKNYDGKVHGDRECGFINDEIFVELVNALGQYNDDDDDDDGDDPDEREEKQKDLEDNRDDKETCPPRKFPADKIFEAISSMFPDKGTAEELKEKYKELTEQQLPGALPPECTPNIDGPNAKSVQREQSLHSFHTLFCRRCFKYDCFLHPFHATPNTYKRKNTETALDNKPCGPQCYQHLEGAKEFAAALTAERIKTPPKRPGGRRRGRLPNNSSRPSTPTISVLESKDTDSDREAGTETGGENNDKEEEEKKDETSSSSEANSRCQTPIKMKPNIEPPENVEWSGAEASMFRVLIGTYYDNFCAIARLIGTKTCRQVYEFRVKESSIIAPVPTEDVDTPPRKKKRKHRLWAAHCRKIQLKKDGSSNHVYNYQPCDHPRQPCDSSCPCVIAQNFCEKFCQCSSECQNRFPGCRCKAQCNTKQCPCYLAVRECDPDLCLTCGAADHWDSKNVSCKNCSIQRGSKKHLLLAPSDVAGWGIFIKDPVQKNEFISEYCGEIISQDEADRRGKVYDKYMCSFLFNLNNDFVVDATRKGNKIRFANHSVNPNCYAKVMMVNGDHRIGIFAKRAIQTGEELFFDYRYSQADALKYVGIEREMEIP

Common to all, as to type: cell-based
For assay [1], the target named is T1, RNA polymerase II (Mus musculus) (UniProt P08775+Q8CFI7+P97760+A0A3Q4L2S8+Q80UW8+P61219+P62488+Q923G2+P60898+O08740+Q63871+P62876). The assay is described as follows: Inhibition of RNA polymerase II in mouse B16-F1 migrating cells assessed as fold change in Gadd45gip1-RNA stability at 0.1 mM measured by ChIP-seq analysis relative to control cells.
Assay [2] addresses T1, RNA polymerase II (Mus musculus). The assay is described as follows: Inhibition of RNA polymerase II in mouse B16-F1 migrating cells assessed as fold change in Eif2ak2-RNA stability at 0.1 mM measured by ChIP-seq analysis relative to control cells.
For assay [3] the target is unchanged. Briefly: Inhibition of RNA polymerase II in mouse B16-F1 migrating cells assessed as fold change in Spopl-RNA stability at 0.1 mM measured by ChIP-seq analysis relative to control cells.
For assay [4] the target is unchanged. The assay is described as follows: Inhibition of RNA polymerase II in mouse B16-F1 migrating cells assessed as fold change in Gpr137-RNA stability at 0.1 mM measured by ChIP-seq analysis relative to control cells.
The target is the same in assay [5]. Briefly: Inhibition of RNA polymerase II in mouse B16-F1 migrating cells assessed as fold change in Zfp958-RNA stability at 0.1 mM measured by ChIP-seq analysis relative to control cells.
Assay [6] has the same target. The assay is described as follows: Inhibition of RNA polymerase II in mouse B16-F1 migrating cells assessed as fold change in Egln3-RNA stability at 0.1 mM measured by ChIP-seq analysis relative to control cells.
For assay [7] the target is unchanged. Briefly: Inhibition of RNA polymerase II in mouse B16-F1 migrating cells assessed as fold change in Brip1-RNA stability at 0.1 mM measured by ChIP-seq analysis relative to control cells.
Assay [8] has the same target. Briefly: Inhibition of RNA polymerase II in mouse B16-F1 migrating cells assessed as fold change in Pgm2-RNA stability at 0.1 mM measured by ChIP-seq analysis relative to control cells.
For assay [9] the target is unchanged. Briefly: Inhibition of RNA polymerase II in mouse B16-F1 migrating cells assessed as fold change in Usp16-RNA stability at 0.1 mM measured by ChIP-seq analysis relative to control cells.
Assay [10] has the same target. The assay is described as follows: Inhibition of RNA polymerase II in mouse B16-F1 migrating cells assessed as fold change in Wdr83os-RNA stability at 0.1 mM measured by ChIP-seq analysis relative to control cells.
Assay [11] shares this target. The assay is described as follows: Inhibition of RNA polymerase II in mouse B16-F1 migrating cells assessed as fold change in Mrpl2-RNA stability at 0.1 mM measured by ChIP-seq analysis relative to control cells.
Assay [12] shares this target. The assay is described as follows: Inhibition of RNA polymerase II in mouse B16-F1 migrating cells assessed as fold change in Mrpl30-RNA stability at 0.1 mM measured by ChIP-seq analysis relative to control cells.
Assay [13] shares this target. The assay is described as follows: Inhibition of RNA polymerase II in mouse B16-F1 migrating cells assessed as fold change in Cenpj-RNA stability at 0.1 mM measured by ChIP-seq analysis relative to control cells.
The target is the same in assay [14]. The assay is described as follows: Inhibition of RNA polymerase II in mouse B16-F1 migrating cells assessed as fold change in Ddx10-RNA stability at 0.1 mM measured by ChIP-seq analysis relative to control cells.
For assay [15] the target is unchanged. Briefly: Inhibition of RNA polymerase II in mouse B16-F1 migrating cells assessed as fold change in Snx13-RNA stability at 0.1 mM measured by ChIP-seq analysis relative to control cells.
Assay [16] shares this target. Briefly: Inhibition of RNA polymerase II in mouse B16-F1 migrating cells assessed as fold change in Pura-RNA stability at 0.1 mM measured by ChIP-seq analysis relative to control cells.
For assay [17] the target is unchanged. Briefly: Inhibition of RNA polymerase II in mouse B16-F1 migrating cells assessed as fold change in Mbnl1-RNA stability at 0.1 mM measured by ChIP-seq analysis relative to control cells.
The target is the same in assay [18]. The assay is described as follows: Inhibition of RNA polymerase II in mouse B16-F1 migrating cells assessed as fold change in Actr6-RNA stability at 0.1 mM measured by ChIP-seq analysis relative to control cells.
Assay [19] has the same target. Briefly: Inhibition of RNA polymerase II in mouse B16-F1 migrating cells assessed as fold change in Smc6-RNA stability at 0.1 mM measured by ChIP-seq analysis relative to control cells.
For assay [20] the target is unchanged. Briefly: Inhibition of RNA polymerase II in mouse B16-F1 migrating cells assessed as fold change in Npat-RNA stability at 0.1 mM measured by ChIP-seq analysis relative to control cells.
Assay [21] has the same target. The assay is described as follows: Inhibition of RNA polymerase II in mouse B16-F1 migrating cells assessed as fold change in Atad1-RNA stability at 0.1 mM measured by ChIP-seq analysis relative to control cells.
Assay [22] shares this target. Briefly: Inhibition of RNA polymerase II in mouse B16-F1 migrating cells assessed as fold change in Supt16-RNA stability at 0.1 mM measured by ChIP-seq analysis relative to control cells.
The target is the same in assay [23]. The assay is described as follows: Inhibition of RNA polymerase II in mouse B16-F1 migrating cells assessed as fold change in Dzip3-RNA stability at 0.1 mM measured by ChIP-seq analysis relative to control cells.
For assay [24] the target is unchanged. The assay is described as follows: Inhibition of RNA polymerase II in mouse B16-F1 migrating cells assessed as fold change in Cited1-RNA stability at 0.1 mM measured by ChIP-seq analysis relative to control cells.
Assay [25] has the same target. The assay is described as follows: Inhibition of RNA polymerase II in mouse B16-F1 migrating cells assessed as fold change in Mien1-RNA stability at 0.1 mM measured by ChIP-seq analysis relative to control cells.
Assay [26] has as its target Histone-lysine N-methyltransferase EZH2 (Mus musculus) (UniProt Q61188). The assay is described as follows: Inhibition of EZH2 in mouse B16-F1 migrating cells assessed as fold change in H3K27me3-buffered regulated Avpi1-mRNA expression at 3 uM measured by ChIP-seq analysis relative to control cells.
The target is the same in assay [27]. Briefly: Inhibition of EZH2 in mouse B16-F1 migrating cells assessed as fold change in H3K27me3-independent regulated Mphosph8-mRNA expression at 3 uM measured by ChIP-seq analysis relative to control cells.
Assay [28] shares this target. The assay is described as follows: Inhibition of EZH2 in mouse B16-F1 migrating cells assessed as fold change in H3K27me3-buffered regulated Btd-mRNA expression at 3 uM measured by ChIP-seq analysis relative to control cells.
Assay [29] shares this target. The assay is described as follows: Inhibition of EZH2 in mouse B16-F1 migrating cells assessed as fold change in H3K27me3-buffered regulated Cited2-mRNA expression at 3 uM measured by ChIP-seq analysis relative to control cells.
The target is the same in assay [30]. Briefly: Inhibition of EZH2 in mouse B16-F1 migrating cells assessed as fold change in H3K27me3-independent regulated Ankrd37-mRNA expression at 3 uM measured by ChIP-seq analysis relative to control cells.
The target is the same in assay [31]. Briefly: Inhibition of EZH2 in mouse B16-F1 migrating cells assessed as fold change in H3K27me3-buffered regulated 9330159F19Rik-mRNA expression at 3 uM measured by ChIP-seq analysis relative to control cells.

The source gives many values for each of these; only a part stands here.

Turning to `OC[C@H]1O[C@@H](n2cnc3cc(Cl)c(Cl)cc32)[C@H](O)[C@@H]1O`, the log2FC is 0.54 in [1]; -0.4 in [2]; -0.63 in assay [3]; 0.58 in [4]; -1.03 in assay [5]; 0.79 in [6]. Moreover, the log2FC in [7] is -0.57; in [8], 0.7; in assay [9], -0.54; in assay [10], 0.43; in assay [11], 0.38; in assay [12], 0.38. Besides, the log2FC in [13] is -0.92; in assay [14], -0.82; in assay [15], -0.61; in [16] it was -0.57; in assay [17] it was -0.68; in [18], -0.69. For the same compound, the log2FC in [19] was -0.97; in [20], -0.83; in assay [21], -0.49; in assay [22] it was -0.74; in [23], -0.86; in assay [24], 1.23. Also, the log2FC in [25] is 0.4.
Take `CCCc1cc(C)[nH]c(=O)c1CNC(=O)c1cc(-c2ccnc(N3CCN(C)CC3)c2)cc2c1cnn2C(C)C`: the log2FC in [26] is 0.71; in [27], -0.6; in assay [28], 0.48; in assay [29], -0.69; in assay [30], -1.57; in [31], -1.1.
